The assay can be described thus: qHTS Assay to Find Inhibitors of Chronic Active B-Cell Receptor Signaling. The settings on record: ABC-DLBCL IkBa-CBG/CBR reporter, luminescence ratio (green luciferase fused to IkBa over red control in TMD8 lymphoma cells), 4 h. Summed up: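 Doxycycline induced both beetle luciferases in TMD8 lymphoma cells; IKK-driven degradation limits the IkappaBalpha-fused green signal, while red luminescence normalises for cell number and nonspecific effects. Compounds tested up to 46 uM, 4 hrs.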
For orientation: In qHTS, concentration-response curves come from the screen itself.

[1] abbreviates: measured here: CBR red luminescence, cell number.
Setting [2] is: measured here: IkBa-CBG green luminescence.

From PubChem BioAssay AID493014 (National Center for Advancing Translational Sciences (NCATS), 2011) come the findings set out here.

The other results are listed elsewhere or left out. Further columns of the screen follow, without active or inactive calls. Compounds called inactive in the main read-out are mostly missing here. The note in brackets gives the kind of curve behind each potency; many fits are weak.

A word on the AC50: it is the concentration at which the activity in the assay is half-maximal. Regarding `O=C(N/N=C/c1ccc2c(c1)OCO2)c1cccc(NC(=O)c2ccccc2Cl)c1`, the AC50 under setting [1] was 0.562 µM [falling, full curve, poor fit].

For `COC(=O)c1ccc(C(=O)NC(=S)Nc2nc3c(s2)CC(C)CC3)cc1` (centres undefined), the AC50 under setting [1] is 1.84 µM [falling, full curve].

As to `CC(=O)c1sc(NC(=O)c2ccc(C)cc2)nc1C`, the AC50 under setting [1] is 5.62 µM [falling, single point].

Turning to `CC(C)(C)OC(=O)NCCCC[C@@H](C(=O)NCCCCCCCCCCC(=O)N1CCN(C(=O)OC(C)(C)C)CC1)n1cc(CCO)nn1`, the AC50 under setting [1] was 23.1 µM [falling, single point].

For the compound `CCOC(=O)C(=CNNc1c(C)csc1C(=O)OC)C(=O)OCC`, the AC50 under setting [1] was 28.2 µM [falling, single point].

Consider `COc1cc(-c2nnc(COc3ccc(Cl)cc3C)o2)cc(OC)c1OC`, for which the AC50 under setting [1] was 5.17 µM [rising, full curve].

Turning to `O=c1cc(-c2ccc(F)cc2)[nH][nH]1`, the AC50 under setting [1] was 23.1 µM [falling, partial curve] and the concentration at half-maximal activity (AC50) under setting [2] is 20.6 µM [falling, partial curve, poor fit].

For `CCCCNC(=O)c1ccc(N2CCC3(CC2)OCCO3)c([N+](=O)[O-])c1`, the AC50 under setting [1] was 13 µM [rising, partial curve].

Turning to `Cc1cccc(NC(=O)CN2C(=O)S/C(=C\c3ccc(-c4cccc(C(=O)O)c4C)o3)C2=O)c1`, the AC50 under setting [1] is 2.51 µM [falling, partial curve, poor fit].

For `Cc1cccc(-c2ocnc2C(=O)Nc2ccccc2C(=O)N2CCCC2)c1`, the half-maximal activity concentration (AC50) under setting [1] is 7.08 µM [falling, partial curve, poor fit].

In the case of `COc1cc(SC)ccc1C(=O)Nc1ncc(Cl)cc1Cl`, the AC50 under setting [1] was 0.355 µM [rising, full curve, poor fit].

For `O=C(CSc1nnc(-c2ccccc2O)o1)N1CCc2ccccc2C1`, under setting [1], the AC50 is 2.31 µM [rising, partial curve, poor fit].

Regarding `O=C(Cn1nc(C(=O)O)c2ccccc2c1=O)c1c[nH]c2ccccc12`, the AC50 under setting [1] was 35.5 µM [falling, single point].

Regarding `CC1(CCc2ccc(O)cc2)NC(=O)NC1=O` (centres undefined), the half-maximal activity concentration (AC50) is, setting by setting: under setting [1], 23.1 µM [rising, single point]; under setting [2], 29.1 µM [falling, partial curve, poor fit].

As to `Cc1nnc(SCC(=O)Nc2cccc(S(=O)(=O)N3CCCCC3)c2)s1`, the AC50 under setting [1] was 6.51 µM [rising, single point].

For `COC(=O)C(N)Cc1ccc(O)c(O)c1` (centres undefined), the AC50 under setting [1] is 5.8 µM [falling, single point].

As for `Fc1ccc(-c2nnc3ccc(N4CCc5ccccc5C4)nn23)cc1`, the AC50 under setting [1] was 32.6 µM [falling, single point].

Regarding `CCOc1ccc(CC2S/C(=N/c3ccccn3)NC2=O)cc1` (centres undefined), the AC50 under setting [1] was 3.16 µM [rising, full curve].

Consider `O=C(N/N=C/c1ccccn1)c1ccccc1`, for which the AC50 under setting [1] was 11.6 µM [falling, partial curve].

Consider `Cc1sc(NC(=O)c2ccco2)c(C(c2cccnc2)N2CCN(C)CC2)c1C` (centres undefined), for which the AC50 under setting [1] is 35.5 µM [falling, partial curve, poor fit].

For the compound `CCc1ccc(-n2c(=O)c3ccc(C(=O)NCCc4ccccc4)cc3n(CC(N)=O)c2=O)cc1`, the AC50 under setting [1] is 20 µM [rising, partial curve, poor fit].

Regarding `Cc1ccccc1C(=O)N1CCN(c2ccc(NC(=O)c3ccc4c(c3)OCO4)cc2)CC1`, the concentration at half-maximal activity (AC50) under setting [1] was 14.1 µM [falling, partial curve, poor fit].

For the compound `CCn1c(SCC(=O)Nc2ccccc2N2CCOCC2)nnc1-c1ccccc1O`, the AC50 under setting [1] is 18.4 µM [falling, single point].

Consider `CCOC(=O)CC1C(=O)NCCN1Cc1cccc(C(F)(F)F)c1` (centres undefined), for which, under setting [1], the AC50 was 6.51 µM [falling, single point].

For the compound `Cc1ccc(OC(C)C(=O)Nc2ccccc2C(=O)NCc2cccnc2)cc1C` (centres undefined), the AC50 under setting [1] is 35.5 µM [falling, single point].

Take `Cc1ccc2nc(SCC(=O)c3ccc(O)cc3O)[nH]c2c1`: the AC50 under setting [1] is 0.447 µM [rising, full curve, poor fit].

`CCN(CC)CCC(=O)N1c2ccccc2Sc2ccc(NC(=O)OC)cc21`: the AC50 under setting [1] was 15.8 µM [falling, partial curve].

With `C=CCNc1nc(-c2cc3ccccc3o2)cs1`, the AC50 under setting [1] was 5.17 µM [falling, partial curve].

Take `O=C(CCCN1C(=O)/C(=C/c2ccc(F)cc2)SC1=S)NCCCn1ccnc1`: the AC50 under setting [1] was 3.16 µM [falling, full curve].

`COc1cc(C2C3C(=O)N(c4ccccc4)C(=O)C3ON2c2ccccc2)ccc1O` (centres undefined): under setting [1], the AC50 is 17.8 µM [falling, single point].

For `S=C1NC(c2ccccc2)=NCN1c1ccccc1`, under setting [1], the AC50 was 6.51 µM [rising, single point].

Regarding `CCCCCc1c(C)nc(Nc2ccccc2)[nH]c1=O`, the AC50 under setting [1] is 0.184 µM [rising, full curve, poor fit].

For the compound `COc1ccccc1NC(=O)c1ccc(Br)o1`, the AC50 under setting [1] is 2.31 µM [rising, partial curve, poor fit].

Turning to `CCC/C(O)=C1\C(=O)CC(C)(C)CC1=NCc1ccccc1`, the AC50 under setting [1] was 11.2 µM [falling, single point].

As to `Cc1ccc(NC(=O)CSc2nc(-c3ccco3)nc3cc(=O)[nH]n23)c(Cl)c1`, the half-maximal activity concentration (AC50) under setting [1] is 14.1 µM [rising, single point].

On to `O=C(Nc1cccc(N2C(=O)C3CCCCC3C2=O)c1)c1ccccc1` (centres undefined), for which the AC50 under setting [1] was 8.91 µM [falling, partial curve, poor fit].

On to `COc1ccccc1-c1cc(C(F)(F)F)nc(S(=O)(=O)CCCC(=O)O)n1`, for which, under setting [1], the AC50 was 18.4 µM [falling, single point].

On to `COc1cccc(C(=O)Nc2nc3ccc(S(C)(=O)=O)cc3s2)c1`, for which, under setting [1], the AC50 is 8.91 µM [falling, partial curve, poor fit].

Take `COc1ccccc1C(CNc1ncnc2sc(C)c(C)c12)N(C)C` (centres undefined): the AC50 under setting [1] is 5.01 µM [falling, full curve, poor fit].

Take `COc1cc2c(cc1NC(=O)CSc1nccn1C)oc1ccccc12`: under setting [1], the AC50 was 29.1 µM [falling, single point].

On to `C=CCN(c1ccc(Cl)cc1)S(=O)(=O)c1cccc(C(=O)OCC(=O)N(C)C)c1`, for which the AC50 under setting [1] was 35.5 µM [falling, single point].

As for `O=C(NCC1CCCO1)c1cccc(NC(=O)c2ccc(Br)cc2)c1` (centres undefined), the AC50 under setting [1] was 17.8 µM [falling, single point].

`Cc1ccc(S(=O)(=O)N2CCOCC2)cc1C(=O)OCC(=O)NCc1ccc2c(c1)OCO2`: under setting [1], the AC50 is 0.184 µM [rising, full curve, poor fit].

Regarding `O=C(N/N=C/c1cc2ccccc2[nH]1)c1ccccc1Cl`, the concentration at half-maximal activity (AC50) under setting [1] is 10 µM [falling, partial curve].

For the compound `CCCOC(=O)C1C2C=C[C@]3(CN(CCc4ccccc4)C(=O)[C@H]13)O2` (some centres undefined), under setting [1], the AC50 is 7.94 µM [rising, partial curve, poor fit].

`CCc1ccccc1Nc1nc2ccccc2n1C(C)C`: under setting [1], the AC50 was 35.5 µM [rising, single point].

For `O=C(N/N=C/c1cc(O)ccc1Br)c1cccnc1`, the AC50 under setting [1] is 22.4 µM [falling, single point].

Consider `O=C(CCCC(=O)N(CC(=O)NC1CCCCC1)c1ccccc1F)Nc1ccccn1`, for which the AC50 under setting [1] is 28.2 µM [falling, single point].

For `O=C(NCCc1ccccc1)c1ccc2nc(-c3ccco3)c(-c3ccco3)nc2c1`, the AC50 was 8.2 µM [falling, partial curve] under setting [1] and 16.4 µM [rising, partial curve, poor fit] under setting [2].

As for `Cc1ccccc1NC(=O)Nc1ccc2c(c1)OCO2`, the AC50 under setting [1] was 2.51 µM [falling, full curve].

In the case of `Cc1ccc(S(=O)(=O)NN2C(=O)/C(=C/c3cccn3C)SC2=S)cc1`, the AC50 is, setting by setting: under setting [1], 32.6 µM [falling, partial curve, poor fit]; under setting [2], 25.9 µM [rising, partial curve, poor fit].

In the case of `O=C(Nc1ccccc1N1CCOCC1)c1cc2c(s1)CCCCC2`, the AC50 under setting [1] was 25.1 µM [rising, single point].

On to `C(=C\n1nnc2ccccc21)/c1ccccn1`, for which the AC50 under setting [1] is 14.6 µM [falling, partial curve, poor fit].

As to `CC(=O)c1cc2c(cc1N/C(=N/S(=O)(=O)c1ccc(C)cc1)c1ccc(Cl)cc1)OCO2`, the AC50 under setting [1] is 0.112 µM [falling, full curve, poor fit].

For the compound `O=C(NNC(=S)NC(=O)c1ccco1)c1ccc(NC(=O)c2ccccc2)cc1`, the AC50 under setting [1] was 35.5 µM [falling, single point].

For `NNC(=O)c1ccc(Cn2cc(Br)cn2)o1`, the AC50 under setting [1] is 20 µM [falling, single point].

For the compound `O=C(CSC(=S)N1CCOCC1)Nc1nc(=O)c2ccccc2s1`, the AC50 under setting [1] is 2.59 µM [falling, full curve].

Regarding `NC(=O)c1nn(-c2cccc(Cl)c2)c(=O)cc1O`, the concentration at half-maximal activity (AC50) under setting [1] was 25.1 µM [falling, single point].

With `N#Cc1cc(Cl)c(NCC2CCCO2)cc1C#N` (centres undefined), the concentration at half-maximal activity (AC50) under setting [1] is 3.98 µM [rising, single point].

For `Cc1ccc(OC(=O)c2ccc(C)c(C)c2)cn1`, under setting [1], the AC50 was 17.8 µM [rising, single point].

Turning to `CSc1nc(N)nc(SCC(=O)c2ccccc2)c1C#N`, under setting [1], the AC50 was 14.1 µM [falling, single point].

Consider `Cc1c(C(=O)NC2CCCCC2C)oc2ccccc12` (centres undefined), for which the AC50 by setting is: under setting [1], 35.5 µM [falling, single point]; under setting [2], 11.2 µM [rising, partial curve, poor fit].

Regarding `CN(C)S(=O)(=O)c1ccc(-c2csc(N/N=C/c3ccc(O)cc3)n2)cc1`, the AC50 under setting [1] was 25.1 µM [falling, single point].

Regarding `CCN1CCN(c2cc(C)c3cc(NC(=O)c4cc(OC)cc(OC)c4)ccc3n2)CC1`, under setting [1], the AC50 was 22.4 µM [falling, single point].
